According to PubChem BioAssay AID2685 (National Center for Advancing Translational Sciences (NCATS), 2010):
Some of the results follow. Shown are side measurements of this screen, not its main read-out; they come without a call. The list favours compounds with an active or inconclusive main result. The note in brackets gives the kind of curve behind each potency; many fits are weak.

Test: qHTS Assay for Lipid Storage Modulators in Drosophila S3 Cells;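 on cell number change: cells counted by Cell Tracker Red CMTPX staining in the red channel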
Conditions: BODIPY lipid droplet fluorescence, 18-24 h; for cell number change: measured here: cell count max response, cells fed with added oleic acid
Source text: NIH Molecular Libraries Probe Production Centers Network [MLPCN] NIH Chemical Genomics Center [NCGC] MLPCN Grant: 1 R03 MH085686-01 Assay Submitter (PI): Beller, Mathias; Max-Planck-Institut fur Biophysikalische Chemie NCGC Assay Overview: Storing lipids as a reservoir for energy or the anabolism of elementary metabolites is a common feature of probably all cells and is conserved from bacteria to humans. The universal cellular lipid storage organelle is the so-called lipid storage droplet (LD). Although ubiquitous, LDs share a simple structure composed of a hydrophobic core that harbors the storage lipids, which is shielded by a droplet-specific phospholipid monolayer to which proteins are attached. The current model of LD biogenesis involves an incorporation of the lipid core into the membrane leaflets of the endoplasmic reticulum (ER) followed by a subsequent budding-like maturation of a LD, which ultimately pinches off. Once released, LD volume can increase by localized lipogenesis or fusion of existing droplet. Storage lipids are re-mobilized enzymatically by lipase activity. Lipase regulation in the adipocyte is heavily studied and involves multiple components including catecholamine signaling, the LD-associated proteins Perilipin and comparative gene identification (CGI-58) and at least two lipases named hormone sensitive lipase (HSL) and adipocyte triglyceride lipase (ATGL). LD regulation outside of the adipocyte is poorly understood and only few components are known. However, there is an urgent need to learn more about ectopic fat depots as mislocalized storage of lipids, for example in the liver or muscle, is an eminent health problem associated with insulin resistance or the metabolic syndrome. We developed a laser-scanning cytometer assay to enable 1,536-well screening and combined the results of the small molecules screen with an RNAi database based on lipid storage.
Triacsin C (Sigma-Aldrich T-4540), an inhibitor of long-chain fatty acyl CoA synthetase that blocks synthesis of triglycerides, was used as a positive control for lipid under-storage. A total of 23 nL of compound solution of different concentrations were transferred to the assay plates using a Kalypsys pin tool equipped with a 1,536-pin array containing 10-nL slotted pins (FP1S10, 0.457-mm diameter, 50.8 mm long; V&P Scientific). One microliter of oleic acid (400 uM) was added, and the plate was lidded with stainless steel rubber gasket lined lids containing pinholes. […] Fluorescence was detected by excitation of the fluorophores with a 488-nm laser on an Acumen Explorer (TTP Lab Tech). The total intensity in channel 2 (500-530 nm) reflected lipid droplet accumulation. Cells were detected using channel 3 (575-640 nm) with 5-um width and 100-um depth filters. The ratio of the number of objects in PMT channel 2 over the number of objects in PMT channel 3 was also calculated. Percent activity was computed relative to an internal control (100% inhibited lipid droplet deposition due to the presence of 20 uM Triacsin C), which was added to 32 wells/plate.

[1] = measured here: cell number channel AC50, cells fed with added oleic acid
[2] = measured here: lipid fluorescence (Fed channel) AC50, cells fed with added oleic acid

SMILES	cell number change [%]	AC50 [1]	AC50 [2]
Cc1nc(-c2nnc(SCC(=O)Nc3cc(C(F)(F)F)cc(C(F)(F)F)c3)n2C)cs1	-7.88	–	–
COc1ccc(N(CC(=O)NCCSc2ccccn2)S(=O)(=O)c2ccccc2)cc1Cl	-44.9	13 µM [falling, partial curve, poor fit]	–
CCn1cnnc1SCC(=O)c1c(N)n(C2CC2)c(=O)[nH]c1=O	6.03	–	1.46 µM [rising, partial curve, poor fit]
O=C(N/N=C/C(Br)=C/c1ccccc1)c1n[nH]c2c1CCC2	-4.96	–	–
COc1cc(OC)c(NC(=O)CC(C)=O)cc1Cl	-21.5	–	2.31 µM [falling, full curve]
Cc1ccc(OCC(=O)OCC(=O)N2c3ccccc3CC2C)cc1C (centres undefined)	-7.9	–	–
CC[C@H](C)[C@H](NS(=O)(=O)c1ccc(C)cc1)C(=O)N1CCC(C(=O)N[C@H](C(=O)O)C(C)C)CC1	30.7	29.1 µM [rising, single point]	0.651 µM [falling, full curve, poor fit]
O=C(NNC(=O)C1C2C=CC(C2)C1C(=O)O)c1ccccc1O (centres undefined)	4.27	–	20.6 µM [rising, partial curve]
Cc1noc(NS(=O)(=O)c2ccc(NC(=O)c3nn(-c4ccccc4)ccc3=O)cc2)c1C	-8.5	–	29.1 µM [falling, single point]
N#Cc1nc(COc2ccccc2Cl)oc1NCc1cccnc1	-31.9	0.259 µM [falling, full curve, poor fit]	–
O=C(CSc1nnc(-c2ccncc2)o1)Nc1cc(F)ccc1F	6.97	–	2.91 µM [rising, partial curve]
COC(=O)c1ccc2nc(NC(=O)CCS(=O)(=O)c3ccccc3)sc2c1	37.5	25.9 µM [rising, single point]	–
COCC(=O)N(Cc1ccccc1)c1ccccn1	-25.7	0.651 µM [falling, full curve, poor fit]	3.26 µM [falling, full curve]
COc1ccccc1-n1c(C)nnc1SCC(=O)Nc1cccc(C(C)=O)c1	60.9	4.11 µM [rising, full curve]	0.326 µM [rising, full curve]
CCN(C(=O)C1CCN(S(=O)(=O)c2cccc3nonc23)CC1)c1ccccc1	-31.2	2.06 µM [falling, full curve, poor fit]	0.0231 µM [falling, full curve]
COc1ccc(CNC(=O)CCCC(=O)Nc2cccc(Br)c2)cc1	-25.8	–	–
COc1cccc2cc(C(=O)Nc3ccc(F)cc3)c(=Nc3ccc(C(=O)O)cc3)oc12	-49	13 µM [falling, partial curve, poor fit]	9.2 µM [falling, partial curve]
COc1cc(SC)ccc1C(=O)Nc1cccc(S(=O)(=O)NC2=NCCCCC2)c1	56.5	–	–
NC(=O)CCc1nc2cc(C(F)(F)F)ccc2n(Cc2ccccc2)c1=O	19.3	–	0.206 µM [rising, single point]
O=c1[nH]cnc2c1C(c1ccc(Cl)cc1)c1c(nc[nH]c1=O)O2	-19.8	0.0731 µM [falling, full curve, poor fit]	16.4 µM [rising, partial curve]
Cc1csc(SCC(=O)Nc2nccs2)n1	17.9	–	–

SMILES	cell number change [%]	AC50 [1]	AC50 [2]
Cc1ccccc1/C=C\c1nc2ccccc2c(=O)n1Cc1ccccc1	18.1	–	3.66 µM [rising, full curve]
CC(=O)Oc1ccc(C(c2ccc(OC(C)=O)cc2)c2ccccn2)cc1	23.3	–	16.4 µM [rising, partial curve]
COc1cccc2c1cc1c(=O)n(CC(=O)NCCCN3CCCCC3)nc(C)n12	-13.7	–	–
O=C(Nc1ccc2c(c1)oc1ccccc12)c1cccnc1	–	0.164 µM [rising, full curve, poor fit]	29.1 µM [rising, single point]
COCCN(C(=O)Cn1nnc2ccccc21)C(C(=O)NC1CCCCC1)c1ccc(OC)cc1OC (centres undefined)	-40.4	18.4 µM [falling, partial curve]	18.4 µM [falling, partial curve]
CNC(=O)c1ccsc1NC(=O)c1sc2ccccc2c1Cl	–	–	0.461 µM [rising, full curve, poor fit]
Cc1c(CN2CCN(C)C(CCO)C2)[nH]c2c(Cl)cccc12 (centres undefined)	19.2	–	5.17 µM [rising, full curve]
Cc1ccccc1NC(=O)Cn1c(C)nc2ccc(NC(=O)C3CC3)cc2c1=O	-25.7	2.06 µM [falling, full curve, poor fit]	–
O=C(NCCOc1cccnc1)c1ccc(OC2CCN(Cc3ccccn3)CC2)cc1	2.35	–	0.0058 µM [falling, full curve, poor fit]
CCOC(=O)c1c(NC(=O)CN2CCC(C)CC2)sc(C)c1C	108	–	–
CCOCCCNS(=O)(=O)c1cc(Br)cc2c1N(C(=O)C1CC1)CC2	33.1	25.9 µM [rising, single point]	–
O=C(c1cccc(OC2CCN(Cc3cc(F)cc(F)c3)CC2)c1)N1CCCC1	-3.98	–	–
N/C(=N\OC(=O)Cc1ccc(-c2ccccc2)cc1)c1ccncc1	7.26	–	0.103 µM [falling, full curve, poor fit]
C/C(Cc1ccccc1)=N\NC(=O)CNC(=O)c1ccccc1Br	8.7	–	29.1 µM [rising, single point]
CS/C(=N\S(=O)(=O)c1ccccc1)c1ccccc1	-7.26	2.91 µM [rising, single point]	–
COc1ccc(NC(=O)CN(C)C(=O)c2cccc(S(=O)(=O)N3CCCc4ccccc43)c2)cc1	–	6.51 µM [rising, single point]	–
O=C(Cc1cccs1)N1CCN(c2ccccn2)CC1	1.95	–	–
O=C(NC12CC3CC(CC(C3)C1)C2)N1CCC(n2nnc3ccccc32)CC1	32.6	1.84 µM [rising, single point]	–
O=[N+]([O-])c1cc(S(=O)(=O)N2CCCCC2)ccc1NCCCN1CCOCC1	-1.14	–	0.0411 µM [rising, single point]
CC(=O)c1ccc(OCCCC(=O)NCC(c2ccco2)N(C)C)cc1 (centres undefined)	1.6	–	–
CCc1ccc(C2C(C#N)=C(N)N(N(C)C)C3=C2C(=O)CCC3)s1 (centres undefined)	11.8	–	13 µM [rising, partial curve, poor fit]

Quoted from the listing.
COc1cc(SC)ccc1C(=O)Nc1cccc(S(=O)(=O)NC2=NCCCCC2)c1 – cell number change [%]: 56.5
CCOCCCNS(=O)(=O)c1cc(Br)cc2c1N(C(=O)C1CC1)CC2 – cell number change [%]: 33.1
O=C(c1cccc(OC2CCN(Cc3cc(F)cc(F)c3)CC2)c1)N1CCCC1 – cell number change [%]: -3.98
O=C(N/N=C/C(Br)=C/c1ccccc1)c1n[nH]c2c1CCC2 – cell number change [%]: -4.96

Going on with the list.

SMILES	cell number change [%]	AC50 [1]	AC50 [2]
O=C1NC2(CCCCCC2)C(=O)N1Cc1ccccc1Cl	24.3	6.51 µM [rising, single point]	–
Cc1cccc(C2c3[nH]c4ccccc4c3CCN2C(=O)c2cn(C)c3ccccc3c2=O)n1 (centres undefined)	-4.62	–	0.82 µM [falling, full curve, poor fit]
CSC1=C(C#N)C(c2ccc(C)cc2)C2=C(CCCC2=O)N1 (centres undefined)	–	6.51 µM [rising, partial curve, poor fit]	–
O=C(NCCN1CCOCC1)c1cc(-c2ccccc2)on1	9.06	–	0.651 µM [falling, single point]
O=C(O)CCC(NS(=O)(=O)c1ccc(-c2ccccc2)cc1)C(=O)O (centres undefined)	9.25	–	–
O=C(O)CNc1nc(-c2ccccc2)c2cc([N+](=O)[O-])ccc2n1	-21.2	–	0.259 µM [falling, partial curve, poor fit]
Cc1cc(C)n(Cc2cnc(N3CCOCC3)s2)n1	29.9	–	–
CCOc1ccccc1N1CC(C(=O)N2CCc3ccccc3C2)CC1=O (centres undefined)	12.8	–	29.1 µM [rising, single point]
C=CCOC(=O)c1ccc(N2CCN(c3ccccc3)CC2)nc1	11.8	–	5.8 µM [rising, single point]
COc1cc(C(=O)NC(=S)Nc2csc(-c3ccc(F)cc3)n2)cc(OC)c1OC	0.673	–	6.51 µM [falling, partial curve, poor fit]
CCOC(=O)c1c(Nc2nc(C)c(C(=O)NC)s2)sc(C)c1C	–	–	6.51 µM [rising, single point]
Cc1cccc(-c2nc(Nc3ccc(N4CCOCC4)cc3)c3ccccc3n2)c1	13.1	–	2.31 µM [rising, partial curve]
Cc1cc(C)n(-c2ncc(-c3ccccc3)nn2)n1	118	2.06 µM [rising, full curve]	0.651 µM [rising, single point]
O=C(COC(=O)CCN1C(=O)C2CC=CCC2C1=O)NCCc1ccc(F)cc1 (centres undefined)	2.96	–	29.1 µM [rising, single point]
Cc1cccc(-n2c(N)cc(=O)[nH]c2=S)c1	3.22	–	0.259 µM [falling, full curve, poor fit]
Cc1cc([N+](=O)[O-])ccc1NC(=S)NC(=O)C(c1ccccc1)c1ccccc1	8.43	0.146 µM [rising, full curve]	–
CCn1c(Sc2ccc([N+](=O)[O-])cn2)nnc1-c1ccco1	-11.5	–	4.11 µM [falling, single point]
COC(=O)[C@@]12CCCCN1[C@H](c1ccc(SC3CCCCC3)cc1)[C@@H]1C(=O)N(C)C(=O)[C@@H]12	-11.7	–	3.66 µM [falling, single point]
Cc1ccc(-c2n[nH]c(=O)c3ccccc23)cc1S(=O)(=O)NCCN1CCOCC1	-10.6	–	–
O=C1C(=O)N(CCN2CCOCC2)C(c2ccc(F)cc2)/C1=C(/O)c1ccc(S(=O)(=O)N2CCOCC2)cc1 (centres undefined)	-1.26	–	29.1 µM [rising, single point]
